# According to the supplement of paper PMC11150407:
# Several values for one entry are separate records, joined by “and”; a condition that tells them apart may be missing. Equal values may be shown once. Where a name gives a salt, the structure may show the parent alone. Among all 2,100 compounds or so, about 180 (8.6%) showed an effect of 50% or more. Some of the results follow.
# System: MOLM1 and UCSD/AML1 (averaged)
# Assay: cell viability relative to DMSO control (POC); higher = less growth inhibition
# Settings: 1 µM; 72 h
# Description: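 Primary viability screen in the 3q26 EVI1-high AML cell lines MOLM1 and UCSD/AML1 (1.5e3 cells/well, 384-well), compounds at 1 uM for 72 h. ATP CellTiter-Glo read-out given as percent of viable cells over DMSO control (POC), averaged over duplicates. DMSO was the negative control and 5 uM etoposide the positive control. This mapping covers the MicroSource Spectrum and Selleck anticancer libraries (drug names).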
row,SMILES,cell viability
1,OCc1cccnc1,103%
2,O=Cc1ccccc1O[C@@H]1O[C@H](CO)[C@@H](O)[C@H](O)[C@H]1O,102%
3,C[S+]([O-])c1ccc(-c2nc(-c3ccc(F)cc3)c(-c3ccncc3)[nH]2)cc1 (stereo not given),106%
4,CC1=CC(=O)C(C(C)C)=CC1=O,97.2%
5,O=C(O)c1ccccc1OP(=O)(O)O,102%
6,C/C=C(/C(=C/C)c1ccc(O)cc1)c1ccc(O)cc1,96.1%
7,Cc1ncc([N+](=O)[O-])n1CC(C)O (stereo not given),110%
8,OCCn1cc(-c2cnc3nnn(Cc4ccc5ncccc5c4)c3n2)cn1,26.7%
9,CC1=C(/C=C/C(C)=C/C=C/C(C)=C/CO)C(C)(C)CCC1,101%
10,Nc1cc(N2CCCCC2)nc(N)[n+]1[O-],86.8%
11,C=C[C@H]1CN2CC[C@H]1C[C@H]2[C@H](O)c1ccnc2ccc(OC)cc12,107%
12,CC1(C)S[C@@H]2[C@H](NC(=O)[C@H](N)c3ccccc3)C(=O)N2[C@H]1C(=O)O,101%
13,CC1/C(=N/O)C[C@@H]2C[C@H]1C2(C)C (stereo not given in full),102%
14,O=c1n(CCCN2CCN(c3cccc(Cl)c3)CC2)nc2ccccn12,106%
15,COc1ccc([C@@H](C)C(=O)c2ccc(O)cc2O)cc1,112%
16,C#Cc1cccc(Nc2ncnc3cc(OCCOC)c(OCCO)cc23)c1 [OSI-420 (Desmethyl Erlotinib)],42.9%
17,NC(=O)c1cnccn1,104%
18,Cc1nc2ccccn2c(=O)c1CCN1CCC(C(=O)c2ccc(F)cc2)CC1,112%
19,Nc1ccc(-c2ccc3ncc4ccc(=O)n(-c5cccc(C(F)(F)F)c5)c4c3c2)cn1 [Torin 2],10%
20,O[C@H]1[C@H](O)[C@@H](O)[C@H](O)[C@@H](O)[C@H]1O,115%
21,C/C=C/c1ccc(OC)cc1,93.8%
22,C=C(C)[C@@H]1CC[C@]2(CO)CC[C@]3(C)[C@H](CC[C@@H]4[C@@]5(C)CC[C@H](O)C(C)(C)[C@@H]5CC[C@]43C)[C@@H]12,89.1%
23,COc1cccc2c1C(=O)c1c(O)c3c(c(O)c1C2=O)C[C@@](O)(C(=O)CO)C[C@@H]3O[C@H]1C[C@H](N)[C@@H](O)[C@H](C)O1 [Epirubicin Hydrochloride],1.66%

row,SMILES,cell viability
1,COc1cccc2c1C(=O)c1c(O)c3c(c(O)c1C2=O)C[C@@](O)(C(=O)CO)C[C@@H]3O[C@H]1C[C@H](N)[C@@H](O)[C@H](C)O1,5.86%
2,COc1ccc2c(c1)CC[C@@H]1[C@@H]2CC[C@]2(C)[C@@H](O)CC[C@@H]12,96.8%
3,CC(=O)O[C@H]1C(=O)[C@@]2(C)[C@H]([C@H](OC(=O)c3ccccc3)[C@]3(O)C[C@H](OC(=O)[C@H](O)[C@@H](NC(=O)c4ccccc4)c4ccccc4)C(C)=C1C3(C)C)[C@]1(OC(C)=O)CO[C@@H]1C[C@@H]2O,11.7%
4,CC(=O)O[C@H]1C(=O)[C@@]2(C)[C@H]([C@H](OC(=O)c3ccccc3)[C@]3(O)C[C@H](OC(=O)[C@H](O)[C@@H](NC(=O)c4ccccc4)c4ccccc4)C(C)=C1C3(C)C)[C@]1(OC(C)=O)CO[C@@H]1C[C@@H]2O [Paclitaxel (Taxol)],12.3%
5,CC(N)CCCC(C)(C)O (stereo not given),117%
6,CN1CCCN=C1/C=C/c1cccc(O)c1,94.1%
7,NC(=O)c1ccc(-c2nc(-c3ccccn3)c(-c3ccc4c(c3)OCO4)[nH]2)cc1,119%
8,CC(=O)N(c1onc(C)c1C)S(=O)(=O)c1ccc(N)cc1,75.4%
9,Cc1cc(O)cc(C)c1Cl,98.1%
10,C[C@@H](O[C@H]1OCCN(Cc2n[nH]c(=O)[nH]2)[C@H]1c1ccc(F)cc1)c1cc(C(F)(F)F)cc(C(F)(F)F)c1 [Aprepitant (MK-0869)],85.8%
11,Oc1cccc(O)c1,101%
12,C=C1CCC(C2CC(=O)OC2=O)C(=O)CCC2C1CC2(C)C (stereo not given),104%
13,COC(=O)c1c(C)cc(OC)cc1O,94.6%
14,CCn1c(-c2nonc2N)nc2c(C#CC(C)(C)O)ncc(OC[C@H]3CCCNC3)c21,54%
15,NC(=O)CC[C@H](N)C(=O)O,102% and 104%
16,O=C1c2ccccc2C(=O)C1c1ccc(Br)cc1,99.1%
17,CC=CC1=C(C(=O)O)N2C(=O)[C@@H](NC(=O)[C@H](N)c3ccc(O)cc3)[C@H]2SC1,103%
18,Cc1cc2c(s1)Nc1ccccc1N=C2N1CCN(C)CC1,86.1%
19,CC(C)OC(=O)C(C)(C)Oc1ccc(C(=O)c2ccc(Cl)cc2)cc1,100%
20,c1coc(CNc2ncnc3[nH]cnc23)c1,107%
21,CCOc1ccc2nc(S(N)(=O)=O)sc2c1,96.8%
22,C/C(=C\C(=O)OCCCCCCCCC(=O)O)C[C@@H]1OC[C@H](C[C@@H]2O[C@H]2[C@@H](C)[C@H](C)O)[C@@H](O)[C@H]1O,81.8%

# Some of the entries above, reformatted:
row | SMILES | cell viability
6 | CN1CCCN=C1/C=C/c1cccc(O)c1 | 94.1%
13 | COC(=O)c1c(C)cc(OC)cc1O | 94.6%
